Measurements as given in publication PMC5937170.
Construct, isoform or probe ends are uncertain for at least one entry. The comparison behind a weaker result is the experiment's own reference, which may not be listed here.

System: TBP + TFB
Experiment: EMSA
Conditions: no TFB-RF1, no shift at 24 nM TFB, no strong shift at 96 nM TFB; EMSA: 15 ul, 70 C for 15 min, buffer per Ochs et al. 2012 (not given), 8% native PAGE; recombinant protein; label: Cy5 on forward primer; probe letters rebuilt from the primers and the genome

**Q.** Does “ACTATTTTGGAAATTAGTTAAAGCTTCTAAAAAAGCTTGTTGTTTTTCTGGGATTCAGACGGATTATTTACAAAAAAGGAAAGGAATATTGGTAGCTATA (double strand) [pf1011/1012 promoter region (EMSA)]” bind?
**A.** binds more weakly
